Screening data, single-dose tests

From ChEMBL document CHEMBL3988442, “University of Dundee, Small-Polar-MMV Screening Library” (2021).

Mtb cholesterol medium: 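Whole-cell growth test on Mycobacterium tuberculosis, read after 4 days in a medium based on cholesterol and the lipid DPPC; the read-out is not stated. Concentration: 50 µM. Direction is inferred from retests: higher values go with more growth inhibition. Size under these conditions: about 69,000 compounds, about 370 of them at 50% or above in at least one test.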
Mtb glucose medium: 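Whole-cell growth test on Mycobacterium tuberculosis, read after 3 days in glucose-containing 7H9 medium; the read-out is not stated. Concentration: 50 µM. The record gives no direction; compounds that gave an IC50 in retests scored well above the rest, so higher reads as more growth inhibition. About 69,000 compounds were tested under these conditions; 1.1% (about 760) showed 50% or more at least once.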

Results are given as percent effect. How 0% and 100% were set is not recorded. Most values in the screen are low, and negative values occur. Compounds were drawn at random from those tested, without regard to their results. Two or more numbers in one place are separate tests of the same structure; such repeats can differ widely.

SMILES,Mtb cholesterol medium,Mtb glucose medium
CC(=O)c1cn(CCC(=O)NCCCC(=O)O)c2ccccc12,-2.155%,20.01%
CN(C)C(CNC(=O)c1[nH]nc(C2CC2)c1Br)C1CC1 (stereo not shown),2.351%,-42.1%
Cc1cccc(-n2nc(CC(C)C)nc2CS(C)(=O)=O)c1,-5.744%,5.727%
COc1c(CNC2CCc3cc(F)ccc32)c(C(C)C)nn1C (stereo not shown),-17.47%,-35.06%
CC(C)c1cccc(CSc2nnc(CN3CCCC3=O)o2)n1,21.77%,29.51%
CCN(CC)CC(=O)N(C)C(c1cccc(F)c1)c1ccccn1 (stereo not shown),-24.85%,-16.99%
CC(=O)Nc1nc(C(=O)N2CCCC(n3ccnc3)C2)cs1 (stereo not shown),-6.239%,6.141%
Cc1ccc(OCC(=O)NS(=O)(=O)Cc2ccccc2)cc1,-15.92%,-32.13%
CC(C)c1nc(CNc2ccc(CNS(C)(=O)=O)cc2)cs1,1.472%,3.904%
O=C(Nc1cnc2n1CCCC2)c1cccc(OCC(F)(F)F)c1,-16.81%,-22.27% and -3.637%
CN1CCN(c2ncnc3c2CCN(S(=O)(=O)C2CC2)CC3)CC1.O=C(O)C(F)(F)F,-9.89%,0.8499%
CC(=O)c1c(F)cccc1N1CCC(C(N)=O)CC1,-12.57% and -6.205%,-5.258%
COc1ccc(CNC(Cn2cncn2)c2ccccc2)cc1O (stereo not shown),-15.76%,-12.08%
O[C@H]1CCN(CCCOc2ccccc2F)C[C@@]12CCCO2,-3.054% and -1.435%,22.8%
COc1ccc(F)c(F)c1CN1CCC2(CC1)[C@H](O)C[C@@H]2OCCN,8.523%,-16.83%
COc1ccccc1C1CC(=O)Nc2c1c(=O)[nH]n2C1CCCC1 (stereo not shown),2.995%,2.891% and 3.048%
COc1cccc(F)c1C(C)NC(=O)NCc1ccnc(C)n1 (stereo not shown),-24.62%,1.062%
CN(C)C(=O)CCNC(=O)c1cnc(-c2ccccc2)nc1,0.3895%,5.988% and 32.58%
CCc1nccn1C1CCCN(C(=O)c2csc(NC(C)=O)n2)C1 (stereo not shown),17.77%,-2.798%
COC(=O)C1CCN(C(=O)Cn2ccc(-c3ccccc3)n2)CC1,-5.311%,28.71%
Cc1cc(C)nc(CCNC(=O)C(c2ccc(F)cc2)N(C)C)n1 (stereo not shown),-62.98%,-84.52%
CO[C@H]1CCN(S(=O)(=O)c2cn(C)cn2)[C@H]1Cc1ccccc1.O=C(O)C(F)(F)F,5.982%,11.75% and 0.1564%
Cn1cc(CN2CCC3(CCCN3Cc3cccnc3)CC2)cn1.O=C(O)C(F)(F)F.O=C(O)C(F)(F)F.O=C(O)C(F)(F)F,14.99%,12.36%
CC(C)c1nccn1CCCNC(=O)c1ccc(-c2cncnc2)nc1,19.58%,17.23%
NC(=O)C1(Cc2ccccc2-c2ccccc2)CCCN(CC2CC2)C1 (stereo not shown),-13.8%,22.86%
O=C(NC[C@@H]1CCCO1)c1cccnc1N1CCCC1c1ccccc1 (stereo partly shown),-10.98%,-8.762%
CCN1CCN(CC(O)c2ccc(F)cc2)CC1 (stereo not shown),-3.27%,16.95%
CN(CCSc1nncn1C(C)(C)C)c1ccccc1,-9.257%,-2.206%
COc1ccc(C2CCCN2Cc2cnn(C)c2)cc1 (stereo not shown),-5%,-6.64%
CC(C)Oc1cc(N2CCC3(CC2)[C@H](O)C[C@@H]3O)nc(N)n1,-11.44%,20.38%
C[S+]([O-])CCNC(=O)Nc1cc(F)ccc1-n1cccn1 (stereo not shown),-9.641%,-9.772%
CC(C)(C)CC(=O)NS(=O)(=O)c1ccc(F)cc1C(F)(F)F,0.6503%,-17.69%
CSCCC(C)(O)CNC(=O)c1ccsc1 (stereo not shown),-5.299%,5.256% and 0.3446%
Cc1nc2c(c(=O)n1C)CN(C(=O)C1CCN(C(=O)C3CCC3)CC1)C2,-6.745% and 10.2%,13.17%
Cn1cc(C(=O)NCc2cn3c(n2)CN(CC2CCOC2)CC3)cn1.O=C(O)C(F)(F)F.O=C(O)C(F)(F)F (stereo not shown),-3.982%,2.518%
O=C(C1CCOCC1)N1CCc2ncnc(-c3ccc(F)cc3)c2CC1,17.29%,27.26%
CSCCCN1C[C@H](NC(=O)c2cc(C3CC3)on2)[C@@H](C2CC2)C1,8.027%,-3.076%
Cc1nc(-c2ccoc2)n(CC(=O)NCC(C)C)c1C,-21.36%,-26.01%
N#Cc1c(Cl)nsc1NCc1cccnc1OC1CCCC1,16.86%,16.29%
CN(Cc1ccco1)C(=O)CN1CCCC1Cn1cncn1 (stereo not shown),-2.84%,3.721%
[H][C@]12CCN(c3ncc(CC)cn3)C[C@@]1([H])OCCN(C(=O)c1ccco1)C2,-12.13%,-0.5882% and 12.47%
O=C(O)C(F)(F)F.O=c1cc(CNS(=O)(=O)C2CC2)nc2n1CCCN(CC1CC1)C2,-1.891%,15%
CC(=O)NCCNC(=O)N(C)Cc1ccc2c(c1)OCCO2,-10.81%,3.523%
CCn1c(CC2CCN(S(=O)(=O)c3cccc(C)c3)CC2)nn(C)c1=O,-11.77%,-4.644%